From paper PMC4773767
Results are given in words; binding and its absence hold for the method and conditions named. In cells and extracts the contact can be indirect. Some binding calls cover weakened binding; strength is not graded here. For some of these results: Sequences can lack the tags named with a protein.

Tests used:
FLAG-Rab27a (rat) [1] = molecular target: T1, FLAG-Rab27a (rat) (UniProt P23640); assay: condition: only without GTPγS (no nucleotide or 0.1 mM GDP); co-IP; COS7 cells co-transfected; lysed at 4 °C in 25 mM Tris-HCl pH 7.5, 125 mM NaCl, 1 mM MgCl2, 1% Triton X-100 without GTPγS (no nucleotide named, or 0.1 mM GDP in Fig. 5A); anti-FLAG (M2) or anti-HA (12CA5) on protein G-Sepharose overnight; blot with anti-HA (3F10) or anti-FLAG
T1 sequence: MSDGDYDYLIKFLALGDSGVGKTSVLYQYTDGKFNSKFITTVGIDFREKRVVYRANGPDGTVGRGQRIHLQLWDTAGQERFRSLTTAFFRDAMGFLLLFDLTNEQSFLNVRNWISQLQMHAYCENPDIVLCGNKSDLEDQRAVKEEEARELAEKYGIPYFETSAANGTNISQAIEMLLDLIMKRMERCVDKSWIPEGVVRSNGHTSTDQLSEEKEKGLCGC

FLAG-Rab27a (rat) [2] = molecular target: T1, FLAG-Rab27a (rat); assay: co-IP; COS7 cells co-transfected; lysed at 4 °C in 25 mM Tris-HCl pH 7.5, 125 mM NaCl, 1 mM MgCl2, 1% Triton X-100 with 0.1 mM GTPγS; anti-FLAG (M2) on protein G-Sepharose overnight; blot with anti-HA (3F10) or anti-FLAG
[3] = molecular target: T2, Rab27a expressed in transfected RBL-2H3 cells (Fig. S15) (rat) (UniProt P23640); assay: co-IP; lysate from transfected RBL-2H3 cells pretreated with DSP, with or without antigen stimulation (Fig. S15)
T2 sequence: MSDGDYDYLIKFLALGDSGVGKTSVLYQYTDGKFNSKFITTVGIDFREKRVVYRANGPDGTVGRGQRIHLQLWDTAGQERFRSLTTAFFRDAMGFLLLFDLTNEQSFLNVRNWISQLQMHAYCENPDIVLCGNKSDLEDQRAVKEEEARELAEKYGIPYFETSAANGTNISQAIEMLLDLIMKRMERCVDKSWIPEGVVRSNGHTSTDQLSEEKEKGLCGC

[4] = molecular target: T3, endogenous Munc13-4 (rat (endogenous in RBL-2H3)) (UniProt Q9R189); assay: co-IP; RBL-2H3 cells transfected with FLAG-Rab27a together with Si-control or Si-Rab37 plasmid, G418-selected, treated with DSP, lysed in the presence of GTPγS; immunoprecipitation with or without anti-Munc13-4 antibody; blot with anti-FLAG or anti-Munc13-4
T3 sequence: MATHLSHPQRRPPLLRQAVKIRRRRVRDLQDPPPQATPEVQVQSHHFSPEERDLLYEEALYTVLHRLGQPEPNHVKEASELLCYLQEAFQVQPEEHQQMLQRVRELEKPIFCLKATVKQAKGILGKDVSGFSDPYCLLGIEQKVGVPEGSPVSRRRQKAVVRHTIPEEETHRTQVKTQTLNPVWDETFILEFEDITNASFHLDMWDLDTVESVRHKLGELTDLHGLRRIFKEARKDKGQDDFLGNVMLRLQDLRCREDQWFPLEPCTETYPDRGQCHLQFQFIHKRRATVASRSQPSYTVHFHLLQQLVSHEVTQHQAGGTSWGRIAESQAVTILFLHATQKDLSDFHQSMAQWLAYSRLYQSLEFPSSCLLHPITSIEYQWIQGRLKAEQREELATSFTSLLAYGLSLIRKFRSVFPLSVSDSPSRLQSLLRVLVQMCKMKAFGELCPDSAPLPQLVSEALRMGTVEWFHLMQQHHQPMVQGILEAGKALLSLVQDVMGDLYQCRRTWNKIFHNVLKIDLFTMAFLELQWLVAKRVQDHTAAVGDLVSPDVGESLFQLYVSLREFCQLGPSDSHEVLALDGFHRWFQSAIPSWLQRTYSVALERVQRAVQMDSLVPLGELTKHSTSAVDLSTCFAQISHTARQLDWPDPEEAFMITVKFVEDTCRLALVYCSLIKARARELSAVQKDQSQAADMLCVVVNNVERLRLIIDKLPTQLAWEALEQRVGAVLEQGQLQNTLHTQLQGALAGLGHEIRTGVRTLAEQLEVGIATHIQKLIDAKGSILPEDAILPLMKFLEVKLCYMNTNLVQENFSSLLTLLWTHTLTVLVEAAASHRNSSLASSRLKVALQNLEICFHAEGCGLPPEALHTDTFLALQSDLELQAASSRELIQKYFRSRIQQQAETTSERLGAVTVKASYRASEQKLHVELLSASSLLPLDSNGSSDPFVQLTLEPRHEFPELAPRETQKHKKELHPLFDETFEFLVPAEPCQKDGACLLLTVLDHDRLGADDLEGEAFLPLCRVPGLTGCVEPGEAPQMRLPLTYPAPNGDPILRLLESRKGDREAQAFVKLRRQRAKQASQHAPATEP

B1: HA-Munc13-4 (protein, UniProt B2RUP2-2 1-1083)
chain: MATHLSHPQRRPLLRQAIKIRRRRVRDLQDPPPQATQEVQVQSHHFSPEERDLLYEEALYTVLHRLGQPEPNHVKEASELLSYLQEAFQVQPEEHQQMLRRVRELEKPVFCLKATVKQAKGILGKDVSGFSDPYCLLGIEQKVGVAEGSPVSRRRQKAVVKHTIPEEETHRTQVKSQTLNPVWDETFILEFEDIANASFHLDMWDLDTVESVRQKLGELTDLHGLRRIFKEARKDKGQDDFLGNVVLRLQDLRCREDQWFPLEPCTETYPDRGQCHLQFQFIHKRRATAASRSQPSYTVHFHLLQQLVSHEVTQHQAGSTSWDASLSPQAVTILFLHATQKDLSDFHQSMAQWLAYSRLYQSLEFPSSCLLHPITSIEYQWIQGRLKAEQREELATSFTSLLAYGLSLIRKFRSVFPLSVSDSPSRLQSLLRVLVQMCKMKAFGELCPDSAPLSQLVSEALRMGTVEWFHLMQQHHQPMGILEAGKALLNLVQDVMGDLYQCRRTWNKIFHNVLKIDLFSMAFLELQWLVAKRVQDHTVAAGNLVSPDIGESLFQLYVSLKELCQLGPVPSDSREVLALDGFHRWFQPAIPSWLQKTYSVALERVQRAVQMDTLVPLGELTKHSTSAVDLSTCFAQISHTARQLDWPDPEEAFMITVKFVEDTCRLALVYCSLIKARARELSAVQKDQSQAADMLCVVVNNMEQLRLIIDKLPTQLAWEALEQRVGAVLEEGQLQNTLHAQLQGALAGLGHEIRTGVRTLAEQLEVGIATHIQKLIGVKESVLPEDAILPLMKFLEVKLCYMNTNLVQENFSSLLTLLWTHTLTVLVEVASSQRSSSLASGRLKVALQNLEVCFHAEGCGLPPEALHTDTFQALQNDLELQAASSRELIQKYFCSRIQQQAETTSERLGAVTVKVSYRASEQRLRVELLSASSLLPLDSNGSSDPFVQLTLEPRHEFPEVAPRETQKHKKELHPLFDETFEFLVPAEPCQKAWACLLLTVLDHDRLGADDLEGEAFLPLCRVPGLTDCAEPGEAPQMRLPLTYPAPNGDPILRLLESRKGDREAQAFVKLRRQRAKQASQHAP
With B1 the binding (FLAG-Rab27a (rat) [1]) was “no binding” and the binding (FLAG-Rab27a (rat) [2]) was “binds”.

B2: Munc13-4 expressed in transfected RBL-2H3 cells (Fig. S15) (protein, UniProt B2RUP2-2 1-1083)
chain: MATHLSHPQRRPLLRQAIKIRRRRVRDLQDPPPQATQEVQVQSHHFSPEERDLLYEEALYTVLHRLGQPEPNHVKEASELLSYLQEAFQVQPEEHQQMLRRVRELEKPVFCLKATVKQAKGILGKDVSGFSDPYCLLGIEQKVGVAEGSPVSRRRQKAVVKHTIPEEETHRTQVKSQTLNPVWDETFILEFEDIANASFHLDMWDLDTVESVRQKLGELTDLHGLRRIFKEARKDKGQDDFLGNVVLRLQDLRCREDQWFPLEPCTETYPDRGQCHLQFQFIHKRRATAASRSQPSYTVHFHLLQQLVSHEVTQHQAGSTSWDASLSPQAVTILFLHATQKDLSDFHQSMAQWLAYSRLYQSLEFPSSCLLHPITSIEYQWIQGRLKAEQREELATSFTSLLAYGLSLIRKFRSVFPLSVSDSPSRLQSLLRVLVQMCKMKAFGELCPDSAPLSQLVSEALRMGTVEWFHLMQQHHQPMGILEAGKALLNLVQDVMGDLYQCRRTWNKIFHNVLKIDLFSMAFLELQWLVAKRVQDHTVAAGNLVSPDIGESLFQLYVSLKELCQLGPVPSDSREVLALDGFHRWFQPAIPSWLQKTYSVALERVQRAVQMDTLVPLGELTKHSTSAVDLSTCFAQISHTARQLDWPDPEEAFMITVKFVEDTCRLALVYCSLIKARARELSAVQKDQSQAADMLCVVVNNMEQLRLIIDKLPTQLAWEALEQRVGAVLEEGQLQNTLHAQLQGALAGLGHEIRTGVRTLAEQLEVGIATHIQKLIGVKESVLPEDAILPLMKFLEVKLCYMNTNLVQENFSSLLTLLWTHTLTVLVEVASSQRSSSLASGRLKVALQNLEVCFHAEGCGLPPEALHTDTFQALQNDLELQAASSRELIQKYFCSRIQQQAETTSERLGAVTVKVSYRASEQRLRVELLSASSLLPLDSNGSSDPFVQLTLEPRHEFPEVAPRETQKHKKELHPLFDETFEFLVPAEPCQKAWACLLLTVLDHDRLGADDLEGEAFLPLCRVPGLTDCAEPGEAPQMRLPLTYPAPNGDPILRLLESRKGDREAQAFVKLRRQRAKQASQHAP
In the case of B2, the binding [3] is reported as “binds”.

B3: FLAG-Rab27a (in RBL-2H3 cells) (protein, UniProt P23640 1-221)
chain: MSDGDYDYLIKFLALGDSGVGKTSVLYQYTDGKFNSKFITTVGIDFREKRVVYRANGPDGTVGRGQRIHLQLWDTAGQERFRSLTTAFFRDAMGFLLLFDLTNEQSFLNVRNWISQLQMHAYCENPDIVLCGNKSDLEDQRAVKEEEARELAEKYGIPYFETSAANGTNISQAIEMLLDLIMKRMERCVDKSWIPEGVVRSNGHTSTDQLSEEKEKGLCGC
B3 was tested, and the binding [4] was “binds”.
